Out of some 53,000 sequences screened, about 3,700 (7%) were called active.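 How the source made its calls: active means gene knockdowns whose robust z-score for IL-1 alpha signal is at least 2 or at most -2, so actives lie on both sides; inactive means the rest.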 The list shows a part of the results.

The assay in a line: Components of the Cytosolic LPS Sensing Pathway: Gene Identification via Genome-wide siRNA Screen.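 Further: robust z of the log signal after scaling to non-targeting control siRNA wells of the plate.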 The note with it: RAW264.7 macrophages, IL-1a HTRF, actives lie on both sides, screened at 100 nM (by protocol), cells primed 5 h with Pam3CSK4 first. The essentials:
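RAW264.7; siRNA 100 nM final, RNAiMAX, 48h 37 degrees C; Pam3CSK4 5 h; LipidA + TransIT-TKO 24 h; IL-1a HTRF; CellTiter-Glo viability; robust z vs negative-control median.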
Consider GGAGAUCUUGAUUAGCGAATT against Fam71e2, for which the z-score is inactive: 1.9.

As to GGAAAGAUGAGACAGCCUCTT against Impg1, the z-score is inactive: -0.0116.

Consider GGGACAAGUUGAAUAAAAUTT against Lrrc18, for which the z-score is inactive: 0.0044.

For the sequence GCUGUUAUGCAACAUAUAGTT against Mef2c, the z-score is inactive: -0.455.

Take GCGAGUGCUUGGCUAUUAUTT against Ckap2: the z-score was inactive: -0.234.

For the sequence GGGAAGAAAUAUGUUAGAUTT against Pip4p2, the z-score was inactive: 0.92.

GGUCAUCAGUCCUGACACUTT against Cyb5r3: the z-score was inactive: -0.594.

With CCAGAUGGAAAGCGAAAAATT against Thra, the z-score is inactive: -0.27.

For GCAAGUUUGGAGACAAUGATT against Toporsl, the z-score is inactive: 0.561.

On to GGAACUGAUAAACUACUCUTT against Olfr1126, for which the z-score is active: -2.08.

Take GGUGUUUGUUACCAGUAGCTT against Arhgap23: the z-score was inactive: -0.791.

On to GGUGGUAAUUUUUCUCAGATT against Agxt2, for which the z-score is inactive: -1.74.

For GCUCUAUGAAGUGAUGACGTT against Amph, the z-score was inactive: -1.69.

Consider GUCUAGAAUAAUUGGAGGATT against Klk1b27, for which the z-score was inactive: 1.44.

Turning to CCAAAGAAGGUGAGAUUUGTT against Clstn1, the z-score was inactive: -0.161.

As to GGUGUGUGGAUCCUCAUGUTT against Chrdl2, the z-score is inactive: 0.565.

Turning to GGAGACUGACAAGAAAAUUTT against Gm16367, the z-score is inactive: -0.967.

As for GGGUGGAAAAUUUCAGUUUTT against Ube2f, the z-score was inactive: -0.957.

For the sequence GGUAGACAGUGAGUCGGAATT against Trim44, the z-score was inactive: -0.118.

As to CGAAAGGCCCAUGAAUAAATT against Ascc2, the z-score was inactive: -1.26.

As to GGCUAUACAGUCUCUGAAATT against Smu1, the z-score is inactive: 0.178.

Regarding “GCAUUAGAUAGCUGAUGGCTT against 9330132A10Rik”, the z-score was inactive: -0.466.

Turning to GCAGAUCCGAAUCAAUGAGTT against Twf2, the z-score is inactive: 0.504.

For GGCCACAGGUGGAAACUAUTT against Tubb4a, the z-score was inactive: 1.19.

Take GGCCAGAUGACCUUGUCAUTT against Sult1e1: the z-score was inactive: -1.23.

For the sequence CCACAAGUCAUCUUAGUGATT against Zfp236, the z-score is inactive: -0.0754.

As for GGACCUUGGGUCUACAGAATT against Hoxd1, the z-score was inactive: 0.0461.

As to GCUAGAUGCCGAAAAUCAATT against Obscn, the z-score was inactive: 0.607.

For GGAGGGAAAACCACAAGACTT against Dppa4, the z-score was inactive: 0.514.

Regarding GGGAAAAAUCAACUUCACUTT against Vmn1r87, the z-score was inactive: 1.51.

For the sequence GGAAACAUCGAAUCUGAUUTT against Slc11a2, the z-score is inactive: -1.06.

On to CCCAGUUAGAAUUGUUAUCTT against Snx16, for which the z-score was inactive: 1.29.

Consider GGAAAUCUGUUCUUGAAGGTT against Pcdhb4, for which the z-score is inactive: -0.0811.

As to GGAGGUAUUCUAAAAUCACTT against Helb, the z-score was inactive: 0.616.

For GGUGCUAGAAACAUCCUACTT against Fbf1, the z-score was inactive: -0.515.

GGGCAGGACUGAAUCAAGUTT against Dkk2: the z-score was inactive: 0.0431.

Turning to GGACUGGCAAUUUUAUAGATT against Pygb, the z-score was inactive: 0.21.

As to GGCUUGUUCAAGAGAAGAUTT against Slc25a41, the z-score was inactive: 0.177.

Consider GCAUAAAGUUUACGUCCAATT against Irx4, for which the z-score is inactive: -0.294.

As for GCAAAGAAGUGUAUGUGUUTT against Olfr273, the z-score is inactive: 0.0336.

Consider GGUUUGACAAGUUCUUUUGTT against Frmpd3, for which the z-score is inactive: 0.374.

Turning to GGGACAUUAUGCUUAUGACTT against Srsf7, the z-score was inactive: -0.513.

With CCUACGACCUUCUCUACCATT against Prss23, the z-score is inactive: -0.181.

On to CGUAAAGUGAUUAUAACACTT against Ciao1, for which the z-score is inactive: 0.83.

On to GCUCAACCUGAAAACGUAUTT against Ptcd1, for which the z-score is inactive: -0.682.

On to GCGGCUACGUUUAUGAAGATT against Hlcs, for which the z-score was inactive: -0.78.

CCUUAGUAUGUAUGUGGUATT against Map10: the z-score is active: -2.65.

As for GCCAAAUGAACUAGCAAUATT against Golm1, the z-score is inactive: 0.0585.

For GCAUAGUGGAACAGUCUAUTT against Dynlt3, the z-score is inactive: 0.829.

For the sequence CGAUGGCCCAUAAAUACUUTT against Gemin4, the z-score was inactive: -0.774.

As for GGACGAGUUCAAGAGUCUCTT against Elavl3, the z-score was inactive: 0.064.

As to GGCAUGAGAAACUCUGACATT against Itlnb, the z-score is inactive: -1.14.

Regarding GGGACAAGUUCAUCUGAUATT against Rin1, the z-score is active: 2.06.

For CCUCAGGUUUAGAGUUCGCTT against Krtap12-1, the z-score was inactive: 0.329.

In the case of GCAAAUGAAUCAUGGGUGGTT against Rnf141, the z-score is inactive: 0.116.

Regarding GCCCAAUGACAAGAUGUAUTT against Clcn2, the z-score is inactive: -0.935.

Take GCAAUUCAGACAUACAGGGTT against Trappc8: the z-score was inactive: 0.0253.

In the case of GGAUCUCUACAACUACAUATT against Rrm1, the z-score is inactive: -0.309.

With GGAAGCAGACAAUUGGUUUTT against Armcx6, the z-score is inactive: 0.771.

As to GCCACGAGUUCUUUGAAGCTT against Ubxn6, the z-score was inactive: -0.15.

Regarding GCGCGUUCCUGAUGUUUACTT against Alg11, the z-score was inactive: -1.99.

As for CGAUGACACUAUUAUGAGATT against Stpg2, the z-score is inactive: -0.22.

As for GGCUGAGGGUAAAAAGCUATT against Acyp1, the z-score is inactive: -0.924.

In the case of GACUUCGGGCAGCAGCAUATT against Atp5e, the z-score was inactive: 1.36.

On to CCGUCUGGGCAUGAUGAUATT against Dpep3, for which the z-score was inactive: -0.408.

Turning to CCAGAUGCCCUUAUAUUGGTT against Abhd12, the z-score was inactive: -1.69.

Take GGAAAAGUGGUGAACGACATT against Tm4sf4: the z-score was inactive: 0.798.

GGAAGAAGAAUACAAAGAUTT against Zfp40: the z-score is inactive: 0.872.

As for GGGCUCUUUGAUAAUCACUTT against Dnajb11, the z-score was inactive: -1.06.

On to GGAAAACAGUGGUAGCUUATT against Cnp, for which the z-score is inactive: 0.187.

On to GGAACACAGAAGUGAAAAATT against Olfr1260, for which the z-score was inactive: -1.02.

Turning to CCUGGUACAGUUUUCUAUATT against Prss48, the z-score is inactive: -0.13.

Regarding GGAGAUGCCUGGUGAUAAATT against N4bp2l2, the z-score is inactive: 0.118.

Turning to GGAUGACGAUUGUUUAUCATT against Bcl11a, the z-score was inactive: -1.04.

As to GGAAAGAGUCAUGGAAAUATT against Supt16, the z-score was inactive: 0.55.

In the case of “GCCACUACUAAUAGCAUGUTT against 5330438I03Rik”, the z-score is inactive: -1.68.

For the sequence GCUACAAGUGAUCGUCAAUTT against Schip1, the z-score was inactive: 0.667.

For CCUCGUCGAGUGGAAAAUUTT against Pxylp1, the z-score is inactive: -0.574.

Regarding GGAUUUUUGACUGUGAUUCTT against Pak1ip1, the z-score is inactive: -1.57.

CCGAUGGAUGAUCAAGACATT against Plekhf1: the z-score was inactive: -1.17.

As for GGAAGACAAUGCAAUAAUUTT against Ttc19, the z-score was inactive: 0.936.

Regarding GGCGUAAGGCAAUGUGGGUTT against Clrn1, the z-score is inactive: -0.0505.

On to GCCAAUAGUAACCAGCCAGTT against Prkab1, for which the z-score is active: -2.07.

Turning to GGCAGUAAGAACUACUAAATT against Ric1, the z-score was active: 2.65.

Take GCCUGGACCUUAAUUACUUTT against Ptpn14: the z-score is inactive: 1.01.

Consider GAGAAUUAAAGUCAAACGUTT against Tasp1, for which the z-score was inactive: -0.429.

Take GCUUCGUUACGACGAUGAGTT against Ndufs3: the z-score is inactive: 0.674.

For GGCAAAAUCUCCUCUAUCUTT against Olfr905, the z-score is inactive: -1.03.

Turning to GGUUGAAGGAGUGUUUUAUTT against Rtcb, the z-score was active: 2.09.

With GGAGAAAAGCUGUAUACACTT against Tmem177, the z-score was inactive: 1.22.

Turning to CCAGUGAUUAUCUUUAAUGTT against Slc9c1, the z-score is inactive: -0.435.

As for CCUAAACCAGUCUUUUCUCTT against Cnep1r1, the z-score is inactive: 0.369.

With GCCCUUGCCUCUGUAGAUGTT against Olfr857, the z-score is inactive: 0.312.

With CGCAUAUAUGUGUGUCGCCTT against Tmem125, the z-score is inactive: 0.256.

In the case of GGAGUUUGACAAAGAGAAATT against Mlc1, the z-score is inactive: -0.181.

Take GGACACAUUAUCCAGUGACTT against Tmem91: the z-score is inactive: 1.15.

For the sequence GGUGGCUCAAUUCUUGAAGTT against Tagln, the z-score was inactive: 0.806.

On to GGCCGUGUGCAUCUUUGUGTT against Gpr20, for which the z-score is inactive: 1.43.

Regarding GGAAAUCUUAACUAGUAUGTT against Nutf2, the z-score was inactive: 1.45.

Turning to GGAAAGCAAAAGUUUACAATT against Mdh1b, the z-score is inactive: -0.458.

Regarding GCUGAUGAUCUACAUCUCCTT against Srd5a3, the z-score is inactive: 0.768.

With GCGAUAAAACCCUAAAGCUTT against Wdr83, the z-score was inactive: 0.055.

With CGCAUUGAUUCAUUUAAUGTT against Abca8a, the z-score was inactive: -0.383.

As to GCUUGAUUUUAUGUUAGCUTT against Hapln1, the z-score was inactive: -1.28.

Turning to CGGAGCAUGAGCCAGAUAUTT against Eipr1, the z-score was inactive: -0.266.

Take GGGUUUCAGAACUGAGUUATT against Saa1: the z-score is inactive: -0.28.

Turning to GGUGCUAUUUACCAAACUCTT against Btg2, the z-score is inactive: 1.82.

These data come from PubChem BioAssay AID1508600 (Functional Genomics Laboratory (NCATS/FGL), 2020).
